Assay [1] deals with cyclin D3 (human (endogenous in HCT116)) (UniProt P30281). As to the kind of experiment: co-IP; endogenous proteins from HCT116 lysates (wt, K7AS, p21-null); IP with anti-cyclin D1 (DCS-11), anti-cyclin D3 (DCS-28) or anti-p21 (C-19); SDS-PAGE or 2D gel and immunoblot; cells serum-deprived or stimulated with FBS, with or without 1-NMPP1, roscovitine, CR8, PD0332991 or MG132. On the technique in general: In western blotting, separated proteins are transferred to a membrane and probed.

Sequences of proteins named here, by UniProt entry; tags and fusion partners are left off. A change or cut given only in a name is not applied to a line headed by its entry.
UniProt P30281: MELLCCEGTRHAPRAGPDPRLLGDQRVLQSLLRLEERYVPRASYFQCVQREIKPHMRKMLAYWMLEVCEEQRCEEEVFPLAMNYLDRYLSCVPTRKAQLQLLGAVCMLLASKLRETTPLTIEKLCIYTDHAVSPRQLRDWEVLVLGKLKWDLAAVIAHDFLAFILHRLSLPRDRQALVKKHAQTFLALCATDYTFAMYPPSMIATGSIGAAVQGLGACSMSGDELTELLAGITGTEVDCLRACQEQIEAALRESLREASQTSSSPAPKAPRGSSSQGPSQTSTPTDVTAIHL
UniProt P38936: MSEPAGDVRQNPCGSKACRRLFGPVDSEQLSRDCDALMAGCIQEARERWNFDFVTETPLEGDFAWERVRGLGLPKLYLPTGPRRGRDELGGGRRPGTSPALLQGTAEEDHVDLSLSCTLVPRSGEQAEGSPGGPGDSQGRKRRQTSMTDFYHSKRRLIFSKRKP
UniProt P24385: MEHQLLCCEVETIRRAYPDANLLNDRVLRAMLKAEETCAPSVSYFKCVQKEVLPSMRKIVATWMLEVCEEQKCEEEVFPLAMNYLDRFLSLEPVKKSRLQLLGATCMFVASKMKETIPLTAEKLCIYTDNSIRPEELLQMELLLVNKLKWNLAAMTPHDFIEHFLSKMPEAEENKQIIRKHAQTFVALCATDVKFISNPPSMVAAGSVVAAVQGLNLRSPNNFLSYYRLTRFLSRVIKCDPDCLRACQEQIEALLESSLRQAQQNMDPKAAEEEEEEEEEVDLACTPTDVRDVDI
UniProt Q00534: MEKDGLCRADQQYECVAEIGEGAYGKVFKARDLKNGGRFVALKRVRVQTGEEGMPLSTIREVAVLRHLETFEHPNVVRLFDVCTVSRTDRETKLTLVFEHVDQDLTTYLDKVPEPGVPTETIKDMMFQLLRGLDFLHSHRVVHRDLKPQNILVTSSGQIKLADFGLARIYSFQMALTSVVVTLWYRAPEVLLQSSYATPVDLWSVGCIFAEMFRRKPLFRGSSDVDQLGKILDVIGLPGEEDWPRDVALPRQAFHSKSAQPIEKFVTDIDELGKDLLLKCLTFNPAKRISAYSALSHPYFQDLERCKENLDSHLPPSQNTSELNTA

For assay [2], the target named is p21 (human (endogenous in HCT116)) (UniProt P38936). Briefly: co-IP; HCT116 K7AS cells with Tet-On inducible S178P CDK6-Flag and cyclin D3, doxycycline and FBS, with or without 1-NMPP1; IP with anti-p21; 2D gel, anti-CDK6 blot.
Assay [3] has as its target Xpress-cyclin D3 (in CHO cells) (UniProt P30281). As to the kind of experiment: co-IP; CHO cells transfected with cyclin D3 (or cyclin D1-Flag), CDK4-HA and p21 or their mutants; IP with anti-cyclin D3 (DCS-28), anti-p21 or anti-Flag; SDS-PAGE or 2D gel and immunoblot; some immunoprecipitates incubated with ATP and recombinant kinases before the gel.
In assay [4] the target is cyclin D1-Flag (in CHO cells) (UniProt P24385). The description is as above.
The target in assay [5] is cyclin D1 (human (endogenous in HCT116)) (UniProt P24385). Briefly: co-IP; endogenous proteins from HCT116 lysates (wt, K7AS, p21-null); IP with anti-cyclin D1 (DCS-11), anti-cyclin D3 (DCS-28) or anti-p21 (C-19); SDS-PAGE or 2D gel and immunoblot; cells serum-deprived or stimulated with FBS, with or without 1-NMPP1, roscovitine, CR8, PD0332991 or MG132.

From PMC3667761 come the findings set out here.

No constants are given. Whether binding was seen depends on the method and setting. Binding seen in cells or lysates may run through a third protein. Some binding calls cover weakened binding; strength is not graded here.

On to “CDK6 (from UniProt Q00534 1-326) (enzyme)”, for which the binding entry in assay [1] is reported as “binds”.
Take “S178P CDK6-Flag (from UniProt Q00534 1-326) (enzyme)”: in assay [2], the binding entry is recorded as “binds”.
Turning to “human p21 (in CHO cells) (from UniProt P38936 1-164)”, the binding result in assay [3] and in assay [4] was “binds” throughout.
With “human p21 S98A (in CHO cells) (from UniProt P38936 1-164)”, the binding entry in assay [3] is “binds”.
For “human p21 S130A (in CHO cells) (from UniProt P38936 1-164)”, the binding entry in assay [3] was “binds”.
The same measure, in the same setting: then “human p21 T57A (in CHO cells) (from UniProt P38936 1-164)”, with “binds”.
Turning to p21 (from UniProt P38936 1-164), the binding entry in assay [5] and in assay [1] was “binds” each time.
